According to PubChem BioAssay AID504834 (National Center for Advancing Translational Sciences (NCATS), 2011):
About 22,000 (6.9%) of roughly 320,000 compounds were called active. Inconclusive means that the source gave no clear call. Such entries were picked first, then a sample of the others. Calls come from the whole dose curve; as a rule, active = well fitted inhibition curve with a large enough effect; inconclusive = small, poorly fitted or top-dose-only effect, or another doubt; inactive = no such curve, though single readings can be large or run the other way. Potencies beside an inconclusive call are fits to weak or partial responses and may not hold up.

Assay: Primary qHTS for delayed death inhibitors of the malarial parasite plastid, 96 hour incubation
Conditions: P. falciparum luciferase reporter growth; series mostly up to 28.7 µM; activity change, negative = inhibition: at the top concentration
In short: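 Delayed-death screen, second-generation endpoint: infected erythrocytes, 2% hematocrit, 0.05% parasitemia final; 96 hours at 37 C, 5% CO2; luciferase detection reagent; luminescence decrease equals reduced growth.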
% is set by controls: 0 for no effect and ±100 for the full control effect; potency is the fitted concentration of half-maximal effect.

SMILES | Potency | activity change, negative = inhibition
COc1cc(NS(=O)(=O)c2ccc(NC(=S)NC(=O)/C=C/c3ccc(F)cc3)cc2)ncn1 | inconclusive: 5.86 µM [inhibitor, partial curve] | 
Cc1cc2cc(CNC(=O)c3cccc([N+](=O)[O-])c3)ccc2[nH]1 |  | inactive: -17.4%
Oc1ccc(C[C@H]2NCCc3cc(O)c(O)cc32)cc1O | inconclusive: 18.5 µM [inhibitor, single point] | 
c1cc2c(cc1CN1CCNCC1)OCO2 |  | inactive: 10.9%
CCN(CC)S(=O)(=O)c1ccc(Cl)c(NC(=O)COC(=O)c2cccn2C)c1 | inconclusive: 18.5 µM [inhibitor, single point] | 
Cc1cccc(C(=O)NCc2nnc(SC(C)C(=O)Nc3nnc(C)s3)n2C)c1 (stereo not given) |  | inactive: 137%
NC(=O)c1ccnc2c(O)cccc12 | active: 11.7 µM | 
Cc1ccc(C2=NS(=O)(=O)N(C)C(C(=O)NCc3ccccn3)=C2)cc1 | inconclusive: 1.04 µM [inhibitor, full curve] | 
COc1ccc(CN(C)C(=O)CNC(=O)c2cccs2)c(OC)c1 | inconclusive: 10.4 µM [inhibitor, partial curve, poor fit] | 
Cc1ccc(-c2cc(C(=O)N/N=C\c3cnn(C)c3C)c3ccccc3n2)cc1C | inconclusive: 16.5 µM [inhibitor, partial curve, poor fit] | 
Cc1cccc(OCCCC(=O)NCC(=O)Nc2cccc(C)c2C)c1 |  | inactive: -17.5%
COc1ccc(NC(=O)CSc2nc3sc(C)cc3c(=O)n2C)c(OC)c1 |  | inactive: 11.5%
CC1CC2(CCCCC2)Nc2c1ccc1ccccc21 (stereo not given) | inconclusive: 18.5 µM [inhibitor, single point] | 
O=C1Nc2ccccc2C(=O)N2[C@H](c3ccc(F)cc3)[C@@H]3C(=O)N(Cc4ccccc4)C(=O)[C@@H]3[C@H]12 | inconclusive: 16.5 µM [inhibitor, single point] | 
COc1ccc(OCCn2c(NC(=O)c3ccco3)nc3ccccc32)cc1 |  | inactive: -33.2%
O=C(NCCNc1ccc([N+](=O)[O-])cc1)c1ccccc1F | inconclusive: 18.5 µM [inhibitor, single point] | 
CC(C)c1ccc(C2=NN(c3ccccc3)C(=O)CC2)cc1 | inconclusive: 5.86 µM [inhibitor, partial curve, poor fit] | 
Cc1cc2nc[nH]c2cc1[N+](=O)[O-] | inconclusive: 18.5 µM [inhibitor, single point] | 
CCn1c(SCC(=O)OC(C)C)nnc1-c1ccccc1 |  | inactive: 62.7%
COc1ccc(C(=O)NCc2nnc(SCC(=O)NCCc3ccccc3)o2)cc1 | inconclusive: 18.5 µM [inhibitor, single point] | 
COc1ccc(S[C@@H](CCN2CC[C@H](C)CCC2=O)c2ccccc2)cc1 | inconclusive: 9.28 µM [inhibitor, single point] | 
O=C(CCN1C(=O)c2ccccc2C1=O)Nc1sc2c(c1C(=O)NCC1CCCO1)CCC2 (stereo not given) | inconclusive: 14.7 µM [inhibitor, single point] | 
COc1ccc(-c2cc(-c3ccco3)[nH]c(=O)c2C#N)cc1OC |  | inactive: 0.883%
O=C(Nn1cc(C(=O)Nc2ccc(F)cc2F)c2ccccc2c1=O)c1cnccn1 | inconclusive: 1.04 µM [inhibitor, full curve, poor fit] | 

SMILES | Potency | activity change, negative = inhibition
c1ccc(OCCN2C3=NCCN3c3ccccc32)cc1 | inconclusive: 18.5 µM [inhibitor, single point] | 
CCOc1ccccc1N(CC(=O)NCc1ccc(OC)cc1)S(C)(=O)=O | inconclusive: 0.0029 µM [inhibitor, full curve, poor fit] | 
Cc1ccc(Cl)cc1N1CCN(C(=O)CCC(=O)O)CC1 |  | inactive: -29.1%
CC(C)C(=O)NC(=S)Nc1ccc(CN2CCOCC2)cc1 | inconclusive: 3.29 µM [inhibitor, single point] | 
CC(=O)c1c(C)oc2c1cc(NS(=O)(=O)c1ccc(C(=O)O)cc1)c1ccccc12 | inconclusive: 11.7 µM [inhibitor, single point] | 
COc1cc(C2N3CC4(C)CN2CC(C)(C3)C4)ccc1O (stereo not given) |  | inactive: 19.6%
CC(C)=CC(O)C/C(C)=C/COc1ccc2ccc(=O)oc2c1 (stereo not given) |  | inactive: -16.1%
COC(=O)c1c(NC(=O)c2ccco2)sc2c1C(C(=O)OC)CC2 (stereo not given) | inconclusive: 4.15 µM [inhibitor, single point] | 
COCc1cccc(C2=CC(=O)C[C@H](c3ccc(F)cc3)C2)c1 | inconclusive: 4.15 µM [inhibitor, partial curve, poor fit] | 
CCN(CC)CCNCC(=O)N1c2ccccc2CCc2ccc(NC(=O)OC)cc21 | inconclusive: 18.5 µM [inhibitor, single point] | 
C=CCN(C(=O)Cn1nc(C)n2c(cc3cc(C)ccc32)c1=O)c1ccccc1 | inconclusive: 0.0657 µM [inhibitor, full curve, poor fit] | 
CCOc1ccc(Br)cc1S(=O)(=O)Nc1cccc(S(=O)(=O)N(C)c2ccccc2)c1 |  | inactive: 11.6%
CC(=O)Nc1ccc(-c2csc(NC(=O)CC(NC(C)=O)c3ccccc3)n2)cc1 (stereo not given) | inconclusive: 11.7 µM [inhibitor, single point] | 
Cc1cccc(-n2c(CCCN3C(=O)c4ccccc4C3=O)nc3ccccc3c2=O)n1 |  | inactive: -23.3%
O=C(/C=C/c1ccc(OC2CSC2)cc1)c1ccccc1 | inconclusive: 0.0029 µM [inhibitor, full curve, poor fit] | 
NC(=O)C1CCN(CC(=O)Nc2cc(S(=O)(=O)N3CCOCC3)ccc2N2CCCC2)CC1 | inconclusive: 3.29 µM [inhibitor, partial curve] | 
COc1ccc2c(CC(=O)N3CCN(S(=O)(=O)c4cccs4)CC3)coc2c1 | inconclusive: 0.294 µM [inhibitor, full curve, poor fit] | 
CN(c1ccc(C(=O)Nc2ccc(F)cc2F)cc1)S(=O)(=O)c1ccccc1 | inconclusive: 11.7 µM [inhibitor, single point] | 
O=c1[nH]c2cc3c(cc2cc1C(c1nnnn1CC1CCCO1)N1CCCC1)OCO3 (stereo not given) | inconclusive: 11.7 µM [inhibitor, single point] | 
CCOC(=O)c1oc2cc(O)cc(C)c2c(=O)c1-c1cscn1 |  | inactive: 0.298%
COC(=O)c1[nH]c2cccc(C)c2c1NC(=O)CN1CCN(C(=O)c2ccco2)CC1 | active: 11.7 µM | 
Cc1ccc(S(=O)(=O)N2CCN(c3nc(CN4CCCC4)nc4sc(C)c(C)c34)CC2)cc1 | inconclusive: 9.28 µM [inhibitor, partial curve] | 
Cc1nc2ccc(S(=O)(=O)NCC(=O)Nc3cccc(F)c3)cc2s1 |  | inactive: 7.85%
Cc1ccc(NS(=O)(=O)c2cccc(C(=O)N3CCN(C(=O)c4ccco4)CC3)c2)cc1 | inconclusive: 18.5 µM [inhibitor, single point] | 

SMILES | Potency | activity change, negative = inhibition
CCCc1cc(=O)[nH]c(SCC(=O)c2ccc3c(c2)OCCO3)n1 | inconclusive: 10.4 µM [inhibitor, single point] | 
CC(C)CNC(=O)COC(=O)c1cc(S(=O)(=O)N(C)C)ccc1N1CCCC1 |  | inactive: 44.8% [at 1.15 µM]
Cc1cccc(C)c1NC(=O)COC(=O)c1cc[n+]([O-])cc1 |  | inactive: 14.3%
COc1ccc(S(=O)(=O)NCc2ccc(C(=O)N3CCN(Cc4ccccc4)CC3)cc2)cc1 |  | inactive: 29.1%
O=C(Cc1cccc2ccccc12)NCC1CCCO1 (stereo not given) |  | inactive: 7.14%
CC(C)[N+](C)(CCC(C(N)=O)(c1ccccc1)c1ccccc1)C(C)C | inconclusive: 8.09 µM [inhibitor, single point] | 
CCCCn1ccnc1C(=O)c1cc(S(=O)(=O)N2CCOCC2)ccc1C |  | inactive: -26%
COc1ccc(CN2C(=NC(=O)CCc3ccccc3)SC3CS(=O)(=O)CC32)cc1 (stereo not given) | inconclusive: 18.5 µM [inhibitor, single point] | 
CN(C)S(=O)(=O)N1CCc2ccc(NC(=O)c3ccc(C(F)(F)F)cc3)cc2C1 | active: 13.1 µM | 
COc1ccccc1N(CC(O)CN1CCCCC1)S(=O)(=O)c1ccc(C)cc1 (stereo not given) | inconclusive: 8.28 µM [inhibitor, partial curve] | 
O=C(CSc1nnc(NC(=O)C2CC2)s1)Nc1ccc(F)cc1F |  | inactive: 0.757%
Cc1ccc(C(=O)NCc2ccco2)cc1Br |  | inactive: -25.1%
COc1ccc(CCNC(=O)c2nnn(CC(=O)Nc3c(C)cc(C)cc3C)c2N)cc1OC | inconclusive: 18.5 µM [inhibitor, single point] | 
Cn1c(CNC2CCCCC2)c(C#N)c2ccccc21 | inconclusive: 11.7 µM [inhibitor, partial curve, poor fit] | 
CCOC(=O)c1c(NC(=O)COc2ccc3ccc(=O)oc3c2)sc(C(=O)N(C)C)c1C |  | inactive: 10.5%
COc1ccc(CCNC(=S)N2CCC(Cc3ccccc3)CC2)cc1OC | inconclusive: 0.329 µM [inhibitor, full curve, poor fit] | 
CC(=O)Nc1ccc(C)c(NS(=O)(=O)c2cccc(C(F)(F)F)c2)c1 | active: 3.7 µM | 
N=c1c(C(=O)NC2CCCCC2)cc2c(=O)n3ccccc3nc2n1CC1CCCO1 (stereo not given) | inconclusive: 20.8 µM [inhibitor, partial curve, poor fit] | 
COc1cccc(NC(=O)Nc2cc(C(=O)NC(C)C)ccc2N2CC3CC(C2)c2cccc(=O)n2C3)c1 (stereo not given) |  | inactive: -9.3%
Cc1ccc(C2(c3ccccc3)NC(=O)N(CC(=O)NCc3ccccc3)C2=O)cc1C (stereo not given) | inconclusive: 11.7 µM [inhibitor, single point] | 
Nn1c(SCC(=O)Nc2ccc3c(c2)OCO3)nnc1-c1ccc(Cl)cc1 |  | inactive: 34.5%
O=C(O)c1n[nH]c2c1CC(C1CCCCC1)CC2 (stereo not given) |  | inactive: 69.5%

For convenience, part of the list above.
SMILES | Potency | activity change, negative = inhibition
Cn1c(CNC2CCCCC2)c(C#N)c2ccccc21 | inconclusive: 11.7 µM [inhibitor, partial curve, poor fit] | 
CCOC(=O)c1c(NC(=O)COc2ccc3ccc(=O)oc3c2)sc(C(=O)N(C)C)c1C |  | inactive: 10.5%
COc1ccc(CCNC(=S)N2CCC(Cc3ccccc3)CC2)cc1OC | inconclusive: 0.329 µM [inhibitor, full curve, poor fit] | 
CC(=O)Nc1ccc(C)c(NS(=O)(=O)c2cccc(C(F)(F)F)c2)c1 | active: 3.7 µM | 
N=c1c(C(=O)NC2CCCCC2)cc2c(=O)n3ccccc3nc2n1CC1CCCO1 (stereo not given) | inconclusive: 20.8 µM [inhibitor, partial curve, poor fit] | 
